# Test results from the odorant receptor screen of Mainland et al. (2015).
# Values joined by “and” are separate entries in the source; they are usually repeats but may differ in a detail not shown here. Equal values may be shown once. The list shows a part of the results. Each value is one well over the wells without odorant, computed here; the data are noisy.
# Columns and labels:
# Test in all cases: odorant receptor activation (CRE luciferase / Renilla) (fold of no-odor wells); higher = more activation
# Conditions in all cases: 100 µM
# [1] = test system: OR6J1 R121H/T124A/R226H/P250S/L274S/V279L clone 1714
# OR6K2 clone 1041 = test system: OR6K2 clone 1041
# [2] = test system: OR6K3 P228S/P248L clone 1045
# OR6K3 clone 1485 = test system: OR6K3 clone 1485
# OR6K6 clone 1348 = test system: OR6K6 clone 1348
# OR6K6 clone 1392 = test system: OR6K6 clone 1392
# OR6M1 clone 1182 = test system: OR6M1 clone 1182
# [3] = test system: OR6N1 I194T/F245L/Q261R/R293H clone 1038
# OR6N2 clone 1027 = test system: OR6N2 clone 1027
# OR6P1 clone 1034 = test system: OR6P1 clone 1034
# OR6Q1 clone 1231 = test system: OR6Q1 clone 1231
# [4] = test system: OR6S1 T42I/V156I/R237H clone 1271
# OR6T1 clone 1188 = test system: OR6T1 clone 1188
# OR6V1 clone 1730 = test system: OR6V1 clone 1730
# OR6X1 clone 1239 = test system: OR6X1 clone 1239
# OR6Y1 V252I clone 1025 = test system: OR6Y1 V252I clone 1025
# OR7A10 clone 1104 = test system: OR7A10 clone 1104
# OR7A17 clone 1300 = test system: OR7A17 clone 1300
# OR7A5 clone 1469 = test system: OR7A5 clone 1469
# OR7C1 clone 1299 = test system: OR7C1 clone 1299
SMILES,odorant receptor activation [1],odorant receptor activation (OR6K2 clone 1041),odorant receptor activation [2],odorant receptor activation (OR6K3 clone 1485),odorant receptor activation (OR6K6 clone 1348),odorant receptor activation (OR6K6 clone 1392),odorant receptor activation (OR6M1 clone 1182),odorant receptor activation [3],odorant receptor activation (OR6N2 clone 1027),odorant receptor activation (OR6P1 clone 1034),odorant receptor activation (OR6Q1 clone 1231),odorant receptor activation [4],odorant receptor activation (OR6T1 clone 1188),odorant receptor activation (OR6V1 clone 1730),odorant receptor activation (OR6X1 clone 1239),odorant receptor activation (OR6Y1 V252I clone 1025),odorant receptor activation (OR7A10 clone 1104),odorant receptor activation (OR7A17 clone 1300),odorant receptor activation (OR7A5 clone 1469),odorant receptor activation (OR7C1 clone 1299)
CC/C=C\CCO [cis-3-hexen-1-ol],0.921,1.17,0.985,0.798,0.982,0.193,0.904,0.723,0.756,1.18,1.17,0.957,1,0.932,0.937,0.885,0.962,0.787,0.84,1.15
C=C(C)C1CC=C(C)C(=O)C1 (configuration not stated) [r-carvone],0.573,1.31,0.978,1.04,0.709,0.942,0.737,0.941,1.11,0.984,1.11,0.884,0.941,0.672,0.821,1.23,1.08,0.893,0.927,0.781
CC12C=CCC1C1CCC3=CC(=O)CCC3(C)C1CC2 (configuration not stated) [androstadienone],–,3.33,1.34,1.16 and 1.27,0.658 and 0.637,0.907,1.06,0.891,1.91,0.931,0.945,1.15 and 1.01,0.936,–,–,2.15,2.28,1.18 and 1.03,1.27 and 1.17,0.899 and 1.29
CCCCCCCCOC(C)=O [octyl acetate],0.953,1.04,1.06,0.901,1.24,0.849,0.979,1.09,1.14,1.13,0.959,1.18,0.872,0.713,0.874,0.959,1.06,1.41,0.801,1.59
O=C1CCCCC1 [Cyclohexanone],–,0.871,0.507,0.521 and 1.09,0.707 and 0.7,1.04,0.86,0.832,0.867,0.849,–,0.301,1.02,–,–,0.971,1,0.871,0.608 and 0.778,0.675
CCCCCC(=O)O [caproic acid],0.704,1.18,1.12,0.852,0.958,0.152,0.926,0.921,0.63,1.06,1.11,0.938,0.943,0.94,0.673,0.895,1.1,0.74,0.721,0.964
CC(=O)C(C)=O [diacetyl],0.818,1.49,1.14,1.52,1.24,1,0.875,0.849,1.28,1.09,1.11,1.32,1.26,0.875,0.832,1.43,0.957,0.981,1.57,1.12
CC12CCC(C1)C(C)(C)C2=O (configuration not stated) [fenchone],0.767,1.31,1.08,1.39,1.06,0.867,0.991,0.91,0.925,0.899,1.1,1.05,1.19,0.616,1.1,1.07,0.929,0.969,1.21,1.16
CCCCO [1-butanol],1.06,3.11,1.96,1.22,0.681,0.993,0.833,2.44,3.08,3.66,1.12,1,1.06,0.829,0.873,4.04,8.15,1.1,1.22,1.01
CC(C)(O)CCCC1=CCC(C=O)CC1 (configuration not stated) [lyral],1.06,–,–,–,–,–,–,–,–,–,–,–,–,1.15,1.15,–,–,–,–,–
C=CCc1ccc(OC(C)=O)c(OC)c1 [eugenol acetate],1.74,2.04,1.8,1.93,1.3,1.35,1.46,1.43,1.56,1.64,1.89,1.69,2.47,2.17,1.52,1.92,1.49,1.13,2.31,1.68
CCCCCCCC=CC=O [2-decenal],1.23,6.97,4.08,1.49,0.839,0.981,0.873,19.5,14.7,25.2,0.865,1.3,1.41,1.01,0.963,10.5,10.9,1.06,1.95,1.32
CCCCCCC=O [heptaldehyde],0.964,1.07 and 2.38,1.04 and 1,–,–,1.11 and 0.875,0.331 and 0.884,1.32 and 0.605,0.605 and 1.27,1.82 and 0.998,1.03,–,0.555 and 1.09,0.858,1.01,1.29 and 2.81,1.2 and 2.83,0.909 and 1.3 and 1.06,–,0.616 and 0.846 and 0.895
c1ccc(Oc2ccccc2)cc1 [diphenyl ether],0.632,1.28,0.943,1.06,1.11,0.948,0.714,0.862,0.912,0.864,0.986,1.05,1.1,0.816,0.713,1.1,0.966,0.839,1.33,1.27
C=CCc1ccc(O)c(OC)c1 [eugenol],0.891,1.31 and 1.81,0.933 and 1.48,1.37 and 1.04 and 1.43,1.69 and 1.05 and 1.08,1.33 and 1.25,1.78 and 1.23,1.3 and 1.11,1.72 and 1.36,1.83 and 1.39,1.44,0.911 and 1.27,1.4 and 1.54,1.2,1.08,0.966 and 1.48,1.32 and 1.3,1.25 and 1.11,2.02 and 0.933 and 1.36,1.73 and 1.36
COc1ccccc1O [guaiacol],0.991,4.5,1.25,1.19 and 1.36,0.733 and 0.805,0.817,0.865,0.706,2.02,1.47,0.947,0.89 and 1.08,0.839,0.772,0.988,2.3,1.81,1.29 and 1.12,0.912 and 0.987,1.05 and 0.871
O=CCc1ccccc1 [phenyl acetaldehyde],0.926,1.37,1.56,1.34,1.07,1.47,0.862,1.14,1.11,1.94,1.28,1.24,1.15,1.84,1.65,1.55,1.62,1.1,1.27,1.14
C=C(C)C1CCC2=CC(=O)CC(C)C2(C)C1 (configuration not stated) [amyl laurate],1.77,–,–,–,–,–,–,–,–,–,–,–,–,2.18,0.914,–,–,–,–,–
CCCCCCCCCCC=O [undecanal],1.18,1.09,1.23,1.16,0.744,1.3,0.875,1,1.11,1.21,1.03,1.01,0.9,0.895,1.14,0.958,1.39,0.862,1.01,1.02
COC(=O)c1ccccc1 [methyl benzoate],–,1.57,1.07,0.506 and 0.925,0.797 and 0.806,0.855,1.05,0.94,1.08,1.99,–,0.64,1.09,–,–,1.5,1.94,1.12,0.536 and 0.78,0.693
CC(=O)OCC=C(C)CCC=C(C)C [geranyl acetate],1.28,1.59,1.8,1.56 and 1.52,0.799 and 0.771,1.12,1.16,1.48,1.83,1.24,0.879,1.14 and 1.34,0.971,1.09,1.93,1.71,1.48,1.91 and 1.24,1.25 and 1.54,0.902 and 1.12
CC(=O)c1ccccc1 [acetophenone],–,1.22,1.06,0.69 and 0.803,0.918 and 0.579,0.801,1.19,0.756,0.589,1.67,–,2.31,1.21,–,–,0.666,0.783,0.938,0.991 and 0.682,1.85
CC1COCc2cc3c(cc21)C(C)(C)C(C)C3(C)C (configuration not stated) [galaxolide],–,4.15,5.81,–,1.65 and 2.44,3.38,2.99,2.06,3.99,2.54,0.662,–,0.64,–,0.29 and 0.65,6.38,5.68,3.98 and 4.43,–,1.34 and 3.98
COC(=O)c1ccccc1O [methyl salicylate],1.4,1.25,1.12,1.03,1.05,0.907,0.985,1.18,1.04,1,0.599,0.988,0.773,0.9,0.929,1.05,1.04,1.09,0.787,1.09
CC(C)(C)c1ccc(CCC=O)cc1 [bourgeonal],–,0.967,0.865,0.823,0.693,0.153,0.741,0.78,0.595,1.19,0.637,0.841,0.801,–,–,0.933,0.941,0.54,0.912,0.72
CC1=NC(C)SC1C (configuration not stated),–,0.88,0.974,0.879 and 1.15,0.854 and 0.827,1.05,0.984,1.01,0.966,1.38,–,1.37,1.2,–,–,1.15,1.37,1.06,1.08 and 0.938,1.83
CCCCCOC(C)=O [n-amyl acetate],1.05,1.27,1.1,0.421 and 0.81,0.76 and 0.578,0.795,0.575,1.24,0.865,1.41,–,0.532,0.787,1,1.03,1.29,1.58,0.612,0.48 and 0.633,0.56
CCCCCC(C)=O [2-heptanone],–,0.58,0.492,0.75 and 0.836,0.784 and 0.555,0.961,1.09,0.383,0.61,0.862,–,1.01,1.15,–,–,0.653,0.465,2.19,0.734 and 0.581,1.8
CC12C=CCC1C1CCC3CC(=O)CCC3(C)C1CC2 (configuration not stated) [androstenone],–,1.68,0.986,0.987,1.24,1.16,3.64,1.77,2.01,1.82,8.32,1.28,4.05,–,–,1.79,3.15,1.23,1.23,1.13
C=CCc1ccc(OC)c(OC)c1 [eugenol methyl ether],0.841,1.79,1.43,1.71,1.35,1.6,1.54,1.4,1.47,1.28,1.69,1.51,1.72,0.561,1.03,1.41,1.42,1.07,1.82,1.45

# Reformatted with tabs: part of the list above.
SMILES	odorant receptor activation [1]	odorant receptor activation (OR6K2 clone 1041)	odorant receptor activation [2]	odorant receptor activation (OR6K3 clone 1485)	odorant receptor activation (OR6K6 clone 1348)	odorant receptor activation (OR6K6 clone 1392)	odorant receptor activation (OR6M1 clone 1182)	odorant receptor activation [3]	odorant receptor activation (OR6N2 clone 1027)	odorant receptor activation (OR6P1 clone 1034)	odorant receptor activation (OR6Q1 clone 1231)	odorant receptor activation [4]	odorant receptor activation (OR6T1 clone 1188)	odorant receptor activation (OR6V1 clone 1730)	odorant receptor activation (OR6X1 clone 1239)	odorant receptor activation (OR6Y1 V252I clone 1025)	odorant receptor activation (OR7A10 clone 1104)	odorant receptor activation (OR7A17 clone 1300)	odorant receptor activation (OR7A5 clone 1469)	odorant receptor activation (OR7C1 clone 1299)
C=C(C)C1CC=C(C)C(=O)C1 (configuration not stated) [r-carvone]	0.573	1.31	0.978	1.04	0.709	0.942	0.737	0.941	1.11	0.984	1.11	0.884	0.941	0.672	0.821	1.23	1.08	0.893	0.927	0.781
CC1=NC(C)SC1C (configuration not stated)	–	0.88	0.974	0.879 and 1.15	0.854 and 0.827	1.05	0.984	1.01	0.966	1.38	–	1.37	1.2	–	–	1.15	1.37	1.06	1.08 and 0.938	1.83
